In publication PMC11742690 one finds binding data, which are given here for two substances.

Sequences of proteins named here, by UniProt entry; tags and fusion partners are left off.
UniProt Q13485: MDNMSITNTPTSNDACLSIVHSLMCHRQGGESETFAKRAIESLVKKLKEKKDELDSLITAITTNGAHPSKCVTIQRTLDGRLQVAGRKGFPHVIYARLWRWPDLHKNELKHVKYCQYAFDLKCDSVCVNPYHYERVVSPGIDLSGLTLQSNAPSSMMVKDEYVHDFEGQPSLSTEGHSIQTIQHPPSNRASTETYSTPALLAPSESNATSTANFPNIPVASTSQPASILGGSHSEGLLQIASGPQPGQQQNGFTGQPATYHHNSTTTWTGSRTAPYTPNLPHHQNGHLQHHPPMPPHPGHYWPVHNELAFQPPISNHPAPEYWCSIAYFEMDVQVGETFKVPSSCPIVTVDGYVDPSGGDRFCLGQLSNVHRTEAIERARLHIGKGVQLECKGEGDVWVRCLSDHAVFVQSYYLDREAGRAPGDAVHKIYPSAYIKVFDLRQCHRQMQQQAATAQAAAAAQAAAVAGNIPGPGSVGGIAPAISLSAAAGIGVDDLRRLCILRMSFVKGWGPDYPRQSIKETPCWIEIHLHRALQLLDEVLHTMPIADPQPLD
UniProt Q15796: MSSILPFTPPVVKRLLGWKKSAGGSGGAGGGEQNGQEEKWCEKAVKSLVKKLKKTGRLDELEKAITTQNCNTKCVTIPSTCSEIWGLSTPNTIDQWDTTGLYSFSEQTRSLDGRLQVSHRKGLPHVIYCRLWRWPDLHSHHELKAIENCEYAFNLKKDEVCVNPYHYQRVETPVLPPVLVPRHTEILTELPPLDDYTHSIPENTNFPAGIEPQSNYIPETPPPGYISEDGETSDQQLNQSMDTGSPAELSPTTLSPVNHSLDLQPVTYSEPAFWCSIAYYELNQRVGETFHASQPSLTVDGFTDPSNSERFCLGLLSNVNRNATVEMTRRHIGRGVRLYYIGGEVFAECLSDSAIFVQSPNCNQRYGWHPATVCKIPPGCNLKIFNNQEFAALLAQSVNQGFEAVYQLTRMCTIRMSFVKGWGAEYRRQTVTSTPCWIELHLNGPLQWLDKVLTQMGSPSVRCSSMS

These are yes or no findings as the source states them, for the method shown. Binding seen in cells or lysates may run through a third protein. Here binding means that the protein was enriched with, or labelled near, the bait; the list need not be complete. Sequences can lack the tags named with a protein.

This assay concerns the target T1, AMDHD1-3×FLAG (stably overexpressed, AMDHD1-OV cells) (UniProt Q96NU7).
T1 sequence: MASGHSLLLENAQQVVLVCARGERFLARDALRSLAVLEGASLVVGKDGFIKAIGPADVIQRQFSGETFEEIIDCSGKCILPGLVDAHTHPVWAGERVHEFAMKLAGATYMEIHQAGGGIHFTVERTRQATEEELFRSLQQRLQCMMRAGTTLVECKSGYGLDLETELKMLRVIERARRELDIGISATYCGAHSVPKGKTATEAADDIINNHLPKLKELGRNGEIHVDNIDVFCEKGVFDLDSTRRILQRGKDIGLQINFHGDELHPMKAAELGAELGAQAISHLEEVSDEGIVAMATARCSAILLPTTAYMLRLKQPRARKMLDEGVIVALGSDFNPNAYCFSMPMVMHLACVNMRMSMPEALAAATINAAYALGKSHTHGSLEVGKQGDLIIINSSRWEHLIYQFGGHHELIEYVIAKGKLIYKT
As to the kind of experiment: affinity purification with mass spectrometry; immunoprecipitation of AMDHD1 from AMDHD1-OV cells; bands cut from a Coomassie Blue gel, digested, Q Exactive HF-X.

As for “SMAD4 (endogenous, CCA cells) (from UniProt Q13485 1-552)”, the binding result was “binds”. The result for “SMAD2 (endogenous, CCA cells) (from UniProt Q15796 1-467)” reads “binds”.
